Assay results from publication PMC12541374.

System: PtoHB1 (Populus tomentosa)
Assay: EMSA
Settings: 100 ng protein; EMSA with 100 ng protein, biotin-labeled probes (Beyotime kit), 50x and 100x unlabeled competitor; pH and temperature not stated (as in Fang et al. 2023); recombinant protein; protein details: His (pET32a fusion, Ni-NTA purified); label: biotin

## TATTACAATAATTGA (double strand) [12bp-ins-Probe (PtoIRKIhap2 promoter)]
  binding result: binds

For at least one entry, the source does not settle the construct or the ends of the probe.
